# Measurements from publication PMC7819943, “Rice protein-binding microarrays: a tool to detect cis-acting elements near promoter regions in rice”.
# Chains of the proteins cited; added tags and fusions are not shown.
# UniProt Q0JBA9, entry or part of it: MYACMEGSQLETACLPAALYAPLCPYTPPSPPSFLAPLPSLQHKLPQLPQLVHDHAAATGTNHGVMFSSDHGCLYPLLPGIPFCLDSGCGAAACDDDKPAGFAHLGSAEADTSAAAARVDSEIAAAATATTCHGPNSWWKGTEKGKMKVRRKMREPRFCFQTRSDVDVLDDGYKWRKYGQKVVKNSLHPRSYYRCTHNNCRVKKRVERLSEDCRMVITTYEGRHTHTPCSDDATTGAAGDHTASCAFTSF
# The list shows a part of the results.
# Target: OsWRKY34 (Oryza sativa, UniProt Q0JBA9 1-250)
# Assay: protein-binding microarray (RPBM); PBS, 2% BSA, 51.3 ng/ul salmon testes DNA, 50 uM zinc acetate, 200 nM TF, 25 C, 1 h; high values mean tight binding
# Conditions: protein: recombinant; tags: N-terminal polyhistidine and DsRed monomer fusion (pET32a); label: CyDye5-dUTP incorporated in the synthesized complementary strand; 3' TTTTT single-stranded linker to array surface; dsDNA, one strand shown
# Summary of the method: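 An Axon 4000B scanner gave the binding signal as per-feature fluorescence intensity in arbitrary units. This followed washing of a custom Agilent array that had been incubated for 1 h at 25 °C with 200 nM protein in PBS, 2% BSA, salmon testes DNA and 50 µM zinc acetate. The proteins were transcription factors fused at the N-terminus to polyhistidine and DsRed, expressed in E. coli BL21-CodonPlus and purified on Ni–NTA.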
row,Sequence,binding signal
1,GTGTCCTTTTCTTTTTTTTCTTCTTTTCTTTTTCTTTTTCCGGAGTCACCTAGTGCAG,9510 fluorescence intensity (a.u.)
2,AACTAAACATTTTTCCACGCGCCCCGCATGTATCCTTTCTCGGAGTCACCTAGTGCAG,8040 fluorescence intensity (a.u.)
3,ACCAATCGTTCACACCAGTGCAGTTAACCACCTAACTGATCGGAGTCACCTAGTGCAG,8650 fluorescence intensity (a.u.)
4,GGCCATTAATCTTGCCCGCGAATTAACCTGATAACTAACTCGGAGTCACCTAGTGCAG,8190 fluorescence intensity (a.u.)
5,ATCGTTATCTATTGCCGTATGTTATTTCGTTGTTCCGTCTCGGAGTCACCTAGTGCAG,8920 fluorescence intensity (a.u.)
6,GGGGCTTTTAGTAGTAGTTCCATTTCTTATTTTGTTTTTGCGGAGTCACCTAGTGCAG,14600 fluorescence intensity (a.u.)
7,GCATGCCACATAGCCACTCGCTCATCGGAAGCAAATCATCCGGAGTCACCTAGTGCAG,9460 fluorescence intensity (a.u.)
8,AAGACTTCTCGGCTCTTATCCATTTTTCGAATTTTTTTAGCGGAGTCACCTAGTGCAG,8880 fluorescence intensity (a.u.)
9,TCTTCCCTAGGTGAGATTAATTCTTCTGTGTTTGTCGATTCGGAGTCACCTAGTGCAG,8470 fluorescence intensity (a.u.)
10,CTCCTTGGCCCTTTATATACATACACACAGGCACACGTCCCGGAGTCACCTAGTGCAG,12900 fluorescence intensity (a.u.)
11,CGCCTGTTGTTCTTGCCTCCTTCCCCGACCGCCACTCTTCCGGAGTCACCTAGTGCAG,13600 fluorescence intensity (a.u.)
12,TGGTGTGGTTTTTTATTAGACGGTGGGAGGAAGACAAATACGGAGTCACCTAGTGCAG,8570 fluorescence intensity (a.u.)
13,CGTCAATGTCCTTACAAAATTATGGAGCACCTCTCTTTTTCGGAGTCACCTAGTGCAG,9170 fluorescence intensity (a.u.)
14,AGATCATTTTCTCATCAATCCAGCCATTCTATCTATACTACGGAGTCACCTAGTGCAG,8810 fluorescence intensity (a.u.)
15,CAATTGCCATGCTATTTGTGTTTTGTGTTTATGTGCAACTCGGAGTCACCTAGTGCAG,9250 fluorescence intensity (a.u.)
16,TTTCCTCTTTTTTGTTTGTTCGTTTGCTGCGTTATCACCTCGGAGTCACCTAGTGCAG,10200 fluorescence intensity (a.u.)
17,GGTGTACTTGTTTGCCTGGTTATGATGGAAATCCATATATCGGAGTCACCTAGTGCAG,8710 fluorescence intensity (a.u.)
18,TTACTATACTATTAATATCTGATCACACCTGTCATACACACGGAGTCACCTAGTGCAG,9710 fluorescence intensity (a.u.)
19,CTTGTTCCTGCACGCGATTGCCCAACTTGGAGCACGAAATCGGAGTCACCTAGTGCAG,8320 fluorescence intensity (a.u.)
20,ATCTGCTTCAATTTCGTATTCGACAATATTCGATTCCGTTCGGAGTCACCTAGTGCAG,9530 fluorescence intensity (a.u.)
21,ATAACCAACATATTTAGCCTACAATTAAATATTTACTATACGGAGTCACCTAGTGCAG,8390 fluorescence intensity (a.u.)
22,CGCCCTCTGCTTTTACTAGTGCATCTCCGTCTCGCTGCATCGGAGTCACCTAGTGCAG,9110 fluorescence intensity (a.u.)
23,TGGCATCTTCTATACATAATACAAGCTCCTTTGTTTCCTACGGAGTCACCTAGTGCAG,8790 fluorescence intensity (a.u.)

# An excerpt of these results, tab-delimited:
row	Sequence	binding signal
1	GTGTCCTTTTCTTTTTTTTCTTCTTTTCTTTTTCTTTTTCCGGAGTCACCTAGTGCAG	9510 fluorescence intensity (a.u.)
15	CAATTGCCATGCTATTTGTGTTTTGTGTTTATGTGCAACTCGGAGTCACCTAGTGCAG	9250 fluorescence intensity (a.u.)
17	GGTGTACTTGTTTGCCTGGTTATGATGGAAATCCATATATCGGAGTCACCTAGTGCAG	8710 fluorescence intensity (a.u.)
18	TTACTATACTATTAATATCTGATCACACCTGTCATACACACGGAGTCACCTAGTGCAG	9710 fluorescence intensity (a.u.)
20	ATCTGCTTCAATTTCGTATTCGACAATATTCGATTCCGTTCGGAGTCACCTAGTGCAG	9530 fluorescence intensity (a.u.)
